Source: article PMC11423568
These are yes or no findings as the source states them, for the method shown. Some entries that bind do so weakly or less than the wild type.

Sequences of proteins named here, by UniProt entry; tags and fusion partners are left off.
UniProt O30612: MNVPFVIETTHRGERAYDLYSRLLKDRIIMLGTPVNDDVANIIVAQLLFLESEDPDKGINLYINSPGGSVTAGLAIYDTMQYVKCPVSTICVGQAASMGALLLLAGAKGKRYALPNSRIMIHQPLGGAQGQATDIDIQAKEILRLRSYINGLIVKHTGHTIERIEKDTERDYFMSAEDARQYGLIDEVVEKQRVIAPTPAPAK

Target: Myxococcus xanthus DK1622 ClpP2 (MXAN_6438), no tag (Myxococcus xanthus DK1622) (UniProt O30612)
Assay: cross-linking; 20 µM ClpP1 or ClpP2 in 20 mM HEPES, 100 mM NaCl, 1 mM EDTA, pH 7.5, 25°C; glutaraldehyde (0.1% in methods, 1% in legend) 10 min, quenched with 200 mM Tris-HCl pH 7.5; SDS-PAGE; both purified

## Myxococcus xanthus DK1622 ClpP2 (MXAN_6438), no tag (from UniProt O30612 1-203) (enzyme)
  binding: binds weakly
